In PMC3928049:

What was measured:
Test in all cases: pull-down; 6 ug resin-bound MBP fusion protein added to 250 ug total protein extract of DEX-induced transgenic Arabidopsis seedlings, 1 h at 4 C with rotation; 50 mM Tris-HCl pH 7.4, 150 mM NaCl, 10% glycerol, 0.2% NP-40, MG132 and protease inhibitors; anti-HA immunoblot; only the target purified
MBP-JAZ10 (Arabidopsis) = molecular target: T1, MBP-JAZ10 (Arabidopsis) (UniProt Q93ZM9)
T1 sequence: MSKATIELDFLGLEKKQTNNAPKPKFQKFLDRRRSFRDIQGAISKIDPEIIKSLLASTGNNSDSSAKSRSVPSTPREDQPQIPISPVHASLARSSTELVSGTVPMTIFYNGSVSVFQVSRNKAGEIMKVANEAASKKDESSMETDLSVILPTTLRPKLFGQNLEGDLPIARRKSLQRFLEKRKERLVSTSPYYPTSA

MBP-JAZ11 (Arabidopsis) = molecular target: T2, MBP-JAZ11 (Arabidopsis) (UniProt Q9M246)
T2 sequence: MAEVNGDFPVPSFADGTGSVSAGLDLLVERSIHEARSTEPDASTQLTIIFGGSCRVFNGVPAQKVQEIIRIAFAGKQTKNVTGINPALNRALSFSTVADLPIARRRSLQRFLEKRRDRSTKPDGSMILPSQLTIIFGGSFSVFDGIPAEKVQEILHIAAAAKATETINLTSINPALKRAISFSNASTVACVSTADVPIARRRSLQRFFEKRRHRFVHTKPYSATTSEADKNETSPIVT

MBP-JAZ3 (Arabidopsis) = molecular target: T3, MBP-JAZ3 (Arabidopsis) (UniProt Q9LVI4)
T3 sequence: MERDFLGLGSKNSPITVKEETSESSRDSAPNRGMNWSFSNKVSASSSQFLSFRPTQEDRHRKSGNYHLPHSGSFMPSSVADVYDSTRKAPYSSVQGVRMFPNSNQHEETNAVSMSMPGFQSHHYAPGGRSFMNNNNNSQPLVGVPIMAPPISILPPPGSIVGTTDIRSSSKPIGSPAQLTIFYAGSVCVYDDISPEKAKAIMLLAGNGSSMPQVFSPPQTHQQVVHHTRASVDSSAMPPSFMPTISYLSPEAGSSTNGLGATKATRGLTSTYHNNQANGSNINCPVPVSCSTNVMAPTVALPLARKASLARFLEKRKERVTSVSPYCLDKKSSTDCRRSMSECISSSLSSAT

MBP-JAZ4 (Arabidopsis) = molecular target: T4, MBP-JAZ4 (Arabidopsis) (UniProt Q58G47)
T4 sequence: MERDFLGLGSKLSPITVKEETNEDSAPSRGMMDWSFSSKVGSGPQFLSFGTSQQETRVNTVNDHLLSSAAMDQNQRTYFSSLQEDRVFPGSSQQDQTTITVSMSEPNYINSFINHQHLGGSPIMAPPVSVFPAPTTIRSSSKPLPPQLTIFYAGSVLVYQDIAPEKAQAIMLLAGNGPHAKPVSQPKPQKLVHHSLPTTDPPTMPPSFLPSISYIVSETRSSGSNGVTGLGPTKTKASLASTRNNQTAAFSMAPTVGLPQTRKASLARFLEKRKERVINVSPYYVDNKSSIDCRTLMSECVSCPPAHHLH

MBP-JAZ7 (Arabidopsis) = molecular target: T5, MBP-JAZ7 (Arabidopsis) (UniProt O64687)
T5 sequence: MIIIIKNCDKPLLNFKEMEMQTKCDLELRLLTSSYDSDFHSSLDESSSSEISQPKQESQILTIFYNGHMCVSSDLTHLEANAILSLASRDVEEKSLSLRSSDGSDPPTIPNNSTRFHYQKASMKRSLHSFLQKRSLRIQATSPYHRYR

MBP-JAZ8 (Arabidopsis) = molecular target: T6, MBP-JAZ8 (Arabidopsis) (UniProt Q8LBM2)
T6 sequence: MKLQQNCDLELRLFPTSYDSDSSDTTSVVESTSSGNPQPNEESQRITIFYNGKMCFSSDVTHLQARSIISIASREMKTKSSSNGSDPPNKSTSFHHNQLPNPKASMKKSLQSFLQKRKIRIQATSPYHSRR

MBP-JAZ9 (Arabidopsis) = molecular target: T7, MBP-JAZ9 (Arabidopsis) (UniProt Q8W4J8)
T7 sequence: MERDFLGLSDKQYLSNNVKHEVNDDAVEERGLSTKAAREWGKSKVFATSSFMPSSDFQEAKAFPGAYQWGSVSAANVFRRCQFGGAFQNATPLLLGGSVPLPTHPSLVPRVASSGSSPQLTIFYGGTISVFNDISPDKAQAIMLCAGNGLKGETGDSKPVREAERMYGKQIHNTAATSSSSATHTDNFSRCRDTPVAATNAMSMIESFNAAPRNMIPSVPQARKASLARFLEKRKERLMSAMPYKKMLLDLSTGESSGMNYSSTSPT

Measured: binding

HopX1-HA (effector HopX1 from Pseudomonas syringae pv. tabaci 11528)
binds: all assays above

Results are given in words; binding and its absence hold for the method and conditions named. In cells and extracts the contact can be indirect. A result given as binding can be weak or reduced; the word gives no strength. Where a sequence is shown, tags or fusion partners need not be part of it.
